According to publication PMC2660419:
Like-named read-outs stand apart in the source and are kept apart here. Results are given in words; binding and its absence hold for the method and conditions named. Binding calls can cover weak binding; strength is not graded here. For some of these results: Tags and fused reporters may be left off the sequences shown. For some of these results: Binding seen in cells or lysates may run through a third protein.

T1: PTB1 domain of rat FE65 (amino acids 360-524) fused to the LexA DNA-binding domain (rat) (UniProt P46933)
T1 sequence: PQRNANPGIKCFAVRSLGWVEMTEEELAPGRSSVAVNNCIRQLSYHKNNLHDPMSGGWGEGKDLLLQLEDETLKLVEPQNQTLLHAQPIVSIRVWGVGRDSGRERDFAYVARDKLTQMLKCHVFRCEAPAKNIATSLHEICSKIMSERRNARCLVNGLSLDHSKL

B1: myc-tagged mouse Teashirt1 (protein, UniProt Q5DTH5 1-1084)
chain: MPRRKQQAPRRSAAYVPEEELKAAEIDEEHAEDGGLSLDIQESEFACNEETEIKEAQSYQNSPVSTATNQDAGYGSPFSEGSDQLAHFKSSSSREEKEESQCPDSVSYPQDSLAQIKAVYANLFSESCWSSLALDLKKSNSATSNNDASQKESSTPTPTPPTSTASTACTTATTAITSCSTSTSHSSTTSNSSSSGYDWHQAALAKTLQQTSSYGLLPEPSLFSTVQLYRQNNKLYGSVFTGASKFRCKDCSAAYDTLVELTVHMNETGHYRDDNRDKDSEKTKRWSKPRKRSLMEMEGKEDAQKVLKCMYCGHSFESLQDLSVHMIKTKHYQKVPLKEPVPAITKLVPSTKKRALQDLASPCSPEPTGVATEVALSESAKDQKTANPYVTPNNRYGYQNGASYTWQFEARKAQILKCMECGSSHDTLQQLTAHMMVTGHFLKVTTSASKKGKQLVLDPVVEEKIQSIPLPPTTHTRLPASSIKKQPDSPAGSVASEEKKEPEKEKEKEKAPPAAGDAERKIKEETEDATEKFEPTALYQYLREEDLDDSPKGGVDILKSLENTVSTAISKAQNGAPSWGGYPSIHAAYQLPGTVKPLQSAVQSVQIQPSYASSVKSLSSTEHNALLHSPGSLTPPPHKSNVSAMEELVEKVTGKVSIKKEERPTEKEKSSPVKAISPVAKENKDLPKTEETGSKPQKKGSDSETGKAKKESTLDAHTPNGTEPLKAKVTNGCGHLGIITDHSPEPSFINPLSALQSIMNTHLGKVSKPVSPSLDPLAMLYKISNSMLDKPVYPTTPAKQADAIDRYYYENSDQPIDLTKSKNKPLVSGVADAVSSPLRESALMDISDMVKNLTGRLTPKSSTPSTVSEKSDADGSSFEEALDELSPVHKRKGRQSNWNPQHLLILQAQFASSLRETAEGKYIMSDLGPQERVHISKFTGLSMTTISHWLANVKYQLRRTGGTKFLKNLDTGHPVFFCNDCASQFRTASTYVSHLETHLGFSLKDLSKLPLSQIQEQQSVVSKALTNKTLGPLGSSEEDLGSTFQCKLCNRTFASKHAVKLHLSKTHGKSPEDHLIYVTELEKQ
B2: myc-tagged mouse Teashirt2 (protein, UniProt Q68FE9 1-1030)
chain: MPRRKQQAPKRAAGYAQEEVLKEEEEIKEEEEEEEDSGSVAQHQSSNDTGTDEELETGPEQKGYFSCQNSPGSHLSNQDAENESLLSDASDQVSDVKSVCGRDVSDKKANTHPKLPSEPHNCMDKMTAVYANILSDSYWSGLGLGFKLSNSERRNCDTRNSSGKNDFDWHQDALSKSLQQNLPSRSVSKPSLFSSVQLYRQSSKLCGSVFTGASRFRCRQCSAAYDTLVELTVHMNETGHYQDDNRKKDKLRPTSYSKPRKRAFQDMDKEDAQKVLKCMFCGDSFDSLQDLSVHMIKTKHYQKVPLKEPVPTISSKMVTPAKKRVFDVNRPCSPDSTTGSLADSFSSQKSANLQLPSNSRYGYQNGASYTWQFEACKSQILKCMECGSSHDTLQQLTTHMMVTGHFLKVTSSASKKGKQLVLDPLAVEKMQSLSETPNSESLAPKPSSNSPSECTASTTELKKESKKEKGEGIEDEQGVKSEDYEDSLQKPLDPTIKYQYLREEDLEDGSKGGGDILKSLENTVTTAINKAQNGAPSWSAYPSIHAAYQLSEGTKPPMAMGSQILQIRPNLANKLRPIAPKWKGMPLGPVPTSLALYTQVKKETEDKDEVVKQCGKESPHEEATSFSQPEGESFSKIEPPSESRKAEPCPLKEEEKPQKEKPEPLEPVSSLTNGCAPANHTPALPSINPLSALQSVLNNHLGKATEPLRSPSCSSPNSSTSPVFHKSSLHVVDKPVISPTSTRPAASVARHYLFENTDQPIDLTKSKSKRAESSQAQSCTSPPQKHALCDIADMVKVLPKATTPKPAASSRVPPMKLEIDVRRFEDVSSEVSTLHKRKGRQSNWNPQHLLILQAQFASSLFQTSEGKYLLSDLGPQERMQISKFTGLSMTTISHWLANVKYQLRKTGGTKFLKNMDKGHPIFYCSDCASQFRTPSTYISHLESHLGFQMKDMTRMAADQQSKVEQEISRVSSAQRSPETIAGEEDTDSKFKCKLCRRTFVSKHAVKLHLSKTHSKSPEHHSQFVADVDEE
B3: myc-tagged mouse Teashirt3 (protein, UniProt Q8CGV9 1-1081)
chain: MPRRKQQAPRRAAAYVSDELKAAALVEDDVEPEEQAADGEPSAKYMCPEKELSKACPSYQNSPAAEFSSHEMDSESHISETSDRMADFESSSIKNEEETKEVQVPLEDTTVSDSLEQMKAVYNNFLSNSYWSNLNLNLHQPSSENNGGSSSSSSSSSSSCGSGSFDWHQSAMAKTLQQVSQNRMLPEPSLFSTVQLYRQSSKLYGSIFTGASKFRCKDCSAAYDTLVELTVHMNETGHYRDDNHETDNNNPKRWSKPRKRSLLEMEGKEDAQKVLKCMYCGHSFESLQDLSVHMIKTKHYQKVPLKEPVTPVAAKIIPAARKKPSLELELPSSPDSTGGTPKATLSDASDALQKNSNPYITPNNRYGHQNGASYAWHFEARKSQILKCMECGSSHDTLQELTAHMMVTGHFIKVTNSAMKKGKPIMETPVTPTITTLLDEKVQSVPLAATTFTSPSNTPASVSPKLAVEIKKEVDKEKAVPDEKPKEREKPSEEEEKYDISSKYHYLTENDLEESPKGGLDILKSLENTVTSAINKAQNGTPSWGGYPSIHAAYQLPNMMKLSLGSSGKSTPLKPMFGNSEIVSPTKTQTLVSPPSSQTSPMPKTNFHAMEELVKKVTEKVAKVEEKMKEPEGKLSPPKRATPSPCSSEQSEPIKMEASSDGSFKSQENSPSPPRDACKEASPSAEPVENGKELVKPLSGGLSGSTAIITDHPPEQPFVNPLSALQSVMNIHLGKAAKPSLPALDPMSMLFKMSNSLAEKAAVATPPPLQAKKAEHLDRYFYHVNNDQPIDLTKGKSDKGCSLGSGLLSPTSTSPATSSSTVTTAKTSAVVSFMSNSPLRENALSDISDMLKNLTESHTSKSSTPSSISEKSDIDGATLEEAEESTPAQKRKGRQSNWNPQHLLILQAQFAASLRQTSEGKYIMSDLSPQERMHISRFTGLSMTTISHWLANVKYQLRRTGGTKFLKNLDTGHPVFFCNDCASQIRTPSTYISHLESHLGFRLRDLSKLSTEQINNQIAQTKSPSEKLVTSSPEEDLGTTYQCKLCNRTFASKHAVKLHLSKTHGKSPEDHLLFVSELEKQ
B4: full-length Teashirt3 (myc-tagged, interaction mapping of Figure 1C) (protein, UniProt Q63HK5 1-1081)
chain: MPRRKQQAPRRAAAYVSEELKAAALVDEGLDPEEHTADGEPSAKYMCPEKELARACPSYQNSPAAEFSCHEMDSESHISETSDRMADFESGSIKNEEETKEVTVPLEDTTVSDSLEQMKAVYNNFLSNSYWSNLNLNLHQPSSEKNNGSSSSSSSSSSSCGSGSFDWHQSAMAKTLQQVSQSRMLPEPSLFSTVQLYRQSSKLYGSIFTGASKFRCKDCSAAYDTLVELTVHMNETGHYRDDNHETDNNNPKRWSKPRKRSLLEMEGKEDAQKVLKCMYCGHSFESLQDLSVHMIKTKHYQKVPLKEPVTPVAAKIIPATRKKASLELELPSSPDSTGGTPKATISDTNDALQKNSNPYITPNNRYGHQNGASYAWHFEARKSQILKCMECGSSHDTLQELTAHMMVTGHFIKVTNSAMKKGKPIVETPVTPTITTLLDEKVQSVPLAATTFTSPSNTPASISPKLNVEVKKEVDKEKAVTDEKPKQKDKPGEEEEKCDISSKYHYLTENDLEESPKGGLDILKSLENTVTSAINKAQNGTPSWGGYPSIHAAYQLPNMMKLSLGSSGKSTPLKPMFGNSEIVSPTKNQTLVSPPSSQTSPMPKTNFHAMEELVKKVTEKVAKVEEKMKEPDGKLSPPKRATPSPCSSEVGEPIKMEASSDGGFRSQENSPSPPRDGCKDGSPLAEPVENGKELVKPLASSLSGSTAIITDHPPEQPFVNPLSALQSVMNIHLGKAAKPSLPALDPMSMLFKMSNSLAEKAAVATPPPLQSKKADHLDRYFYHVNNDQPIDLTKGKSDKGCSLGSVLLSPTSTAPATSSSTVTTAKTSAVVSFMSNSPLRENALSDISDMLKNLTESHTSKSSTPSSISEKSDIDGATLEEAEESTPAQKRKGRQSNWNPQHLLILQAQFAASLRQTSEGKYIMSDLSPQERMHISRFTGLSMTTISHWLANVKYQLRRTGGTKFLKNLDTGHPVFFCNDCASQIRTPSTYISHLESHLGFRLRDLSKLSTEQINSQIAQTKSPSEKMVTSSPEEDLGTSYQCKLCNRTFASKHAVKLHLSKTHGKSPEDHLLYVSELEKQ
B5: endogenous FE65 of rat cortical neurons (protein, UniProt P46933 1-711)
chain: MSVPSSLSQSAINANSHGGPALSFPFPLHAAHNQLLNAKLQATAVVPKDLRSAMGEGSVPEPGPANAKWLKEGQNQLRRAATAHRDQNRNVTLTLAEEASQEAETAPLGPKGLMHLYSELELSAHNAANRGLHGSALIINTQGLGPDEGEEKAAGEVEEEDEDEEEEDEEEEDLSSPQGLPEPLENVEVPSGPQVLTDGPREHSKSASLLFGMRNSAASDEDSSWATLSQGSPSYGSPEDTDSFWNPNAFETDSDLPAGWMRVQDTSGTYYWHIPTGTTQWEPPGRASPSQGNSPQEESQLTWTGFAHQEGFEEGEFWKDEPSEEAPMELGLKDPEEGTLPFSAQSLSPEPVPQEEENLPQRNANPGIKCFAVRSLGWVEMTEEELAPGRSSVAVNNCIRQLSYHKNNLHDPMSGGWGEGKDLLLQLEDETLKLVEPQNQTLLHAQPIVSIRVWGVGRDSGRERDFAYVARDKLTQMLKCHVFRCEAPAKNIATSLHEICSKIMSERRNARCLVNGLSLDHSKLVDVPFQVEFPAPKNELVQKFQVYYLGNVPVAKPVGVDVINGALESVLSSSSREQWTPSHVSVAPATLTILHQQTEAVLGECRVRFLSFLAVGRDVHTFAFIMAAGPASFCCHMFWCEPNAASLSEAVQAACMLRYQKCLDARSQTSTSCLPAPPAESVARRVGWTVRRGVQSLWGSLKPKRLGSQTP

Experiments:
[1] = biological target: T1, PTB1 domain of rat FE65 (amino acids 360-524) fused to the LexA DNA-binding domain (rat); experiment: two-hybrid; yeast; PTB1 of rat FE65 (360-524) fused to LexA DNA-binding domain as bait (DUALhybrid); adult mouse and fetal human brain cDNA libraries screened; bait dependency confirmed by retransformation
[2] = biological target: GST-PTB1 (PTB1 domain of FE65 fused to GST) (rat) (UniProt P46933); experiment: pull-down; purified GST or GST-PTB1 on glutathione agarose beads incubated with H4 cell lysate expressing myc-tagged Teashirt constructs; washes PBS pH 7.4, 1% Triton X-100; anti-myc blot; only the target purified
[3] = biological target: GST-PTB1 (PTB1 domain of FE65 fused to GST) (rat) (UniProt P46933); experiment: as above; remark: listed apart in the source
[4] = biological target: endogenous Teashirt of rat cortical neurons (rat (endogenous in primary cortical neurons)); experiment: co-IP; 100 ug extract of rat cortical neurons (E18 primary cultures); IP with KD74 anti-Teashirt antibody or mouse IgG, blot with rabbit anti-FE65

Molecule | binding [3] | also measured
Similar to Alex3 (mouse) | – | binding [1]: binds
myc-tagged wild-type (NVKY) C-terminal construct of human Teashirt3 (from UniProt Q63HK5) (domain or fragment) | – | binding [2]: binds
B1 | binds | –
B2 | binds | –
B3 | binds | –
B4 | binds | –
B5 | – | binding [4]: binds
